Data on one substance can be found in article PMC6353868.

Chains of the proteins cited; added tags and fusions are not shown.
UniProt P13864: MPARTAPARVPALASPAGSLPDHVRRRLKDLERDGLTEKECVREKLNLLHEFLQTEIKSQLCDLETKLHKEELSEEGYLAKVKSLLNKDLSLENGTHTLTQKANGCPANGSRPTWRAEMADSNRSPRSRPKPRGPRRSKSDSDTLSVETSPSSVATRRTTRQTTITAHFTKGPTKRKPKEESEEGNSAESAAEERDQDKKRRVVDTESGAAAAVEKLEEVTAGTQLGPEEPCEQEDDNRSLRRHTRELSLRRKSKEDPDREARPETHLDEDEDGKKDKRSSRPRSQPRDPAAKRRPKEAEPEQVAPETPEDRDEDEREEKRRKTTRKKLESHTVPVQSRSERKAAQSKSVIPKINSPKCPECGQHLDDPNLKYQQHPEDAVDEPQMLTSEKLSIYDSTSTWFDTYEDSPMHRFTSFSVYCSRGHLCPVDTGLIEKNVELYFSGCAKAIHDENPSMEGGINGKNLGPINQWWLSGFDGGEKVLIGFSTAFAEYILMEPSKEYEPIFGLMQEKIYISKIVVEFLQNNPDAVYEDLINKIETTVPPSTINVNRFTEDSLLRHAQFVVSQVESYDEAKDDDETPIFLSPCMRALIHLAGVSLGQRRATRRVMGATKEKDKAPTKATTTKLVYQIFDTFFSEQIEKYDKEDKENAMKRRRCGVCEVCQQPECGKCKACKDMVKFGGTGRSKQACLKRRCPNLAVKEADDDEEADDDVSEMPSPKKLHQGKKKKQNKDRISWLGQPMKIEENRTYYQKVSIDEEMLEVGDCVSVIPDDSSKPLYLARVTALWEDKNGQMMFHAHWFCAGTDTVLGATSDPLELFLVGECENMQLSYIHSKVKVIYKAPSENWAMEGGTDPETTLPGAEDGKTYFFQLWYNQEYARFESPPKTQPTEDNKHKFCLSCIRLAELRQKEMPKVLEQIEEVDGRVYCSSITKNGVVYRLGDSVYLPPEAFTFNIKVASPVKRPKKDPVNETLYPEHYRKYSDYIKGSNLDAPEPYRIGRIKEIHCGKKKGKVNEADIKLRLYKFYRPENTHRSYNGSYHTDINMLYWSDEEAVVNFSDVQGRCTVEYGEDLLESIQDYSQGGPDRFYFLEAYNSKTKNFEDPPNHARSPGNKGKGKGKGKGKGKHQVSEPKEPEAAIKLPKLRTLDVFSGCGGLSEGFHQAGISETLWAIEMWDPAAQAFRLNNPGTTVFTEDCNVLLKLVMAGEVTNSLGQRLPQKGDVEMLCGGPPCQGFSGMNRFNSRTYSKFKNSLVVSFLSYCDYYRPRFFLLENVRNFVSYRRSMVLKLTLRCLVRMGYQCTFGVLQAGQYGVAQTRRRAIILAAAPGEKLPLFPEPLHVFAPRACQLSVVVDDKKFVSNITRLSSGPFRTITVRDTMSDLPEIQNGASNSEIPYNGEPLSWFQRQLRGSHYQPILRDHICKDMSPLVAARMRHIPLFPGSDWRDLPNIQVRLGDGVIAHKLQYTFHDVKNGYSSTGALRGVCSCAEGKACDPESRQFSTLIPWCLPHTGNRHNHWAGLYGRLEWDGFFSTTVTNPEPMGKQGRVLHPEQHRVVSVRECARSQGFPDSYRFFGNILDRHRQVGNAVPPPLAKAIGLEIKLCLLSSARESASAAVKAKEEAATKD
UniProt Q62318: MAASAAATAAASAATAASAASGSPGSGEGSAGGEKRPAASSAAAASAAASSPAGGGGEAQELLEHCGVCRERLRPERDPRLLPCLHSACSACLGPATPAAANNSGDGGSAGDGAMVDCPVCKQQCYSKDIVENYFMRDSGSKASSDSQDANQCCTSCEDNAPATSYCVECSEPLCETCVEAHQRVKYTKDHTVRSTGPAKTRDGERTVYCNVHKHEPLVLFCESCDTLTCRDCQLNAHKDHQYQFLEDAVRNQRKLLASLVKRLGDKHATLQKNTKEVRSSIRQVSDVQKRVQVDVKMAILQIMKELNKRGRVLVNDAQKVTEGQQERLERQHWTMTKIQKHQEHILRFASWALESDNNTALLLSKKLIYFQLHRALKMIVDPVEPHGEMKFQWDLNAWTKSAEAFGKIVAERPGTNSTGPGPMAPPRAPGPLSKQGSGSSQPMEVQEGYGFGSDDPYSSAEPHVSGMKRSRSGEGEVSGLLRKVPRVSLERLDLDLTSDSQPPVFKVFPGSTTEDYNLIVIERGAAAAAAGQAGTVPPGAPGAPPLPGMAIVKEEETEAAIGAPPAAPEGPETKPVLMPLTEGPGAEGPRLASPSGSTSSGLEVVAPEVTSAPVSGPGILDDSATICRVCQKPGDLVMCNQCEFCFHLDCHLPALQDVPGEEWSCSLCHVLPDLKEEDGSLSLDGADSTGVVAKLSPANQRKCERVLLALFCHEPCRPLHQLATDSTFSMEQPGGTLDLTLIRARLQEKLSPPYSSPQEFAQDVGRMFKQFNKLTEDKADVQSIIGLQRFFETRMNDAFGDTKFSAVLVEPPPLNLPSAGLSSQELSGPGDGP
UniProt Q02248: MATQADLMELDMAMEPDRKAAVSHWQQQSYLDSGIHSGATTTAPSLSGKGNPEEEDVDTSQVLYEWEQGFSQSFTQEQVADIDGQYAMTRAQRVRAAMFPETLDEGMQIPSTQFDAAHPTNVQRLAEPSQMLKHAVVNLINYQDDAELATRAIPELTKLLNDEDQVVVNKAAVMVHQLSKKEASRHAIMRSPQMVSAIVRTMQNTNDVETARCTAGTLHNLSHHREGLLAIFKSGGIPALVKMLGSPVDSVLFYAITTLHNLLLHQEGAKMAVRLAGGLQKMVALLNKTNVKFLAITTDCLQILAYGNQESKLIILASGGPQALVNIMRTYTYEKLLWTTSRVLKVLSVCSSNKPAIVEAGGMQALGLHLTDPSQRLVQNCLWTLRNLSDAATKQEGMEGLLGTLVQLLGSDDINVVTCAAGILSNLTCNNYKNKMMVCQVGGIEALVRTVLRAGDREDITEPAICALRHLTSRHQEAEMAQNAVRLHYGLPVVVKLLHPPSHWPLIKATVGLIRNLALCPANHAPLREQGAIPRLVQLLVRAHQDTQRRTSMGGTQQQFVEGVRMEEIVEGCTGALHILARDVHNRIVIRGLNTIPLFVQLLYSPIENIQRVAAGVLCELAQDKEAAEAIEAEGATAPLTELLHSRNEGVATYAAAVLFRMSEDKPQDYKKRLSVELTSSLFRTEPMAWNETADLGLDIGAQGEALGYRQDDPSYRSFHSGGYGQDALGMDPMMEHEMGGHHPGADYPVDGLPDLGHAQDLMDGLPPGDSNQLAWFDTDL

These are yes or no findings as the source states them, for the method shown. Binding seen in cells or lysates may run through a third protein. Some binding calls cover weakened binding; strength is not graded here.

Assay [1] concerns the target DNA methyltransferase I (DNMT1) (mouse (endogenous in E14 mESCs)) (UniProt P13864). The experiment in a line: co-IP; nuclear extract (100 µg) of shCtrl-transduced E14 YP-mESCs in CHAPS buffer (50 mM TrisHCl pH 7.5, 150 mM NaCl, 0.15% CHAPS), antibody-coupled Dynabeads (DNMT1, β-catenin or KAP1 antibody, or IgG) overnight at 4 °C, western blot; shβcat-transduced cells as control.

For assay [2], the target named is KAP1 (mouse (endogenous in E14 mESCs)) (UniProt Q62318). The assay is described as above.

Take β-catenin (from UniProt Q02248 1-781): the binding result in assay [1] and in assay [2] was “binds” in each case.
